For test [1], the target named is T1, pro-caspase-1 (mouse (endogenous in BMDM and colon)) (UniProt P29452).
T1 sequence: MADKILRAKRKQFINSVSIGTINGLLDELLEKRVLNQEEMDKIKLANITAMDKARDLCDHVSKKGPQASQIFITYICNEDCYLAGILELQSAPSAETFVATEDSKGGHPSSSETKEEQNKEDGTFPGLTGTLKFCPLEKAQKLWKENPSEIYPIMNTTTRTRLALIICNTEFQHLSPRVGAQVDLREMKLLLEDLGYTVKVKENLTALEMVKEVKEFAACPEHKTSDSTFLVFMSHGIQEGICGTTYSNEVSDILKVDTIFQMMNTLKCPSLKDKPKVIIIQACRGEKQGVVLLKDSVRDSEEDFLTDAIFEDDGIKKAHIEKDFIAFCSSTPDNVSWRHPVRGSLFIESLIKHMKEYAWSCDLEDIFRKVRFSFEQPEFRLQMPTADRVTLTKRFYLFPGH
Briefly: co-IP; colon tissues of control and iUVRAG^FS mice on Dox before/after DSS; inflammasome complex assembly; the precipitating antibody is not named in the text shown.

The chains behind the UniProt entries cited, without tags or fusion partners.
UniProt O88597: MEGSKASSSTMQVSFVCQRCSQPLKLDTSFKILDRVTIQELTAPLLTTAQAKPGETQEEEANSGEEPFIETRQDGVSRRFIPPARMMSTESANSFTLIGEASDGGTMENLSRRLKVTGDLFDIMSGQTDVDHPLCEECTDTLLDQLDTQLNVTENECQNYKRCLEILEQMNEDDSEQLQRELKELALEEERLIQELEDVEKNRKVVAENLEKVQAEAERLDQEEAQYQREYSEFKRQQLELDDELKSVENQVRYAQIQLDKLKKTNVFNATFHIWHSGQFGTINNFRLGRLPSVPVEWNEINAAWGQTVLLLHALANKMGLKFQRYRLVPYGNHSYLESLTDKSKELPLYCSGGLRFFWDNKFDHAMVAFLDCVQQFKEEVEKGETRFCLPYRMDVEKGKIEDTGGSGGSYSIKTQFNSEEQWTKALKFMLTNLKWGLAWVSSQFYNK
UniProt Q8R4B8: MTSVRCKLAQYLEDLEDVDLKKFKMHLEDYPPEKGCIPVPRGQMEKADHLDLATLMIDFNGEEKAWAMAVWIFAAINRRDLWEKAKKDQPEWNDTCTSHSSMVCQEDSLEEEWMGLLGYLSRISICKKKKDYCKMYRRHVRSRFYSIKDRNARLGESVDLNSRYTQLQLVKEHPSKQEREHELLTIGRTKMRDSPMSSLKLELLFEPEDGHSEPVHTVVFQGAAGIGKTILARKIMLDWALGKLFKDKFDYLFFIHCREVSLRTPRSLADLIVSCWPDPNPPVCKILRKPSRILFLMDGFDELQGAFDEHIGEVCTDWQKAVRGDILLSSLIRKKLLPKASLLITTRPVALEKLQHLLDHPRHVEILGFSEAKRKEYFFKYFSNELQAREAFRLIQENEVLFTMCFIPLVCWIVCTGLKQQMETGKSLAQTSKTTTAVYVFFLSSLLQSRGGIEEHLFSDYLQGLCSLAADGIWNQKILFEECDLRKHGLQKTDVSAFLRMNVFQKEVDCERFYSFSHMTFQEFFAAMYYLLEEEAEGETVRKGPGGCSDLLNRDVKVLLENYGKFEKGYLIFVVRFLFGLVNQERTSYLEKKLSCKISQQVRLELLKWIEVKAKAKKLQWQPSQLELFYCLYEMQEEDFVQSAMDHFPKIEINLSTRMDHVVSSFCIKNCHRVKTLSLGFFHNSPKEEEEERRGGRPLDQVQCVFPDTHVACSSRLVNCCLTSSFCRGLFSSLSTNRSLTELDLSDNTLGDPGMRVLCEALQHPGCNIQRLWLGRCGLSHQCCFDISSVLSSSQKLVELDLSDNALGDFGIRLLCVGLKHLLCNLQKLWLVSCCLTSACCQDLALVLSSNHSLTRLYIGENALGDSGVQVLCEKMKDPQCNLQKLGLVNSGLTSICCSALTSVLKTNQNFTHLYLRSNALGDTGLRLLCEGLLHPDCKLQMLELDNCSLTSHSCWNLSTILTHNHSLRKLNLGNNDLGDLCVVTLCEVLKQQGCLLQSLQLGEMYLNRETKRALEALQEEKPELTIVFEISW
UniProt P22366: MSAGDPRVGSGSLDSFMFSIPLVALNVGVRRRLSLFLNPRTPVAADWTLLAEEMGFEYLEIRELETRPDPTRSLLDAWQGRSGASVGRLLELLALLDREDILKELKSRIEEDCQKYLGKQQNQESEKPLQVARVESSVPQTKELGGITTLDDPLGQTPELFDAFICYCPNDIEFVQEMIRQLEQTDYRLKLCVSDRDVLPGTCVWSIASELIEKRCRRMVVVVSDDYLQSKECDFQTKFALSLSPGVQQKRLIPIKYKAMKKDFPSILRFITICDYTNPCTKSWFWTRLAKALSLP
UniProt Q6PF93: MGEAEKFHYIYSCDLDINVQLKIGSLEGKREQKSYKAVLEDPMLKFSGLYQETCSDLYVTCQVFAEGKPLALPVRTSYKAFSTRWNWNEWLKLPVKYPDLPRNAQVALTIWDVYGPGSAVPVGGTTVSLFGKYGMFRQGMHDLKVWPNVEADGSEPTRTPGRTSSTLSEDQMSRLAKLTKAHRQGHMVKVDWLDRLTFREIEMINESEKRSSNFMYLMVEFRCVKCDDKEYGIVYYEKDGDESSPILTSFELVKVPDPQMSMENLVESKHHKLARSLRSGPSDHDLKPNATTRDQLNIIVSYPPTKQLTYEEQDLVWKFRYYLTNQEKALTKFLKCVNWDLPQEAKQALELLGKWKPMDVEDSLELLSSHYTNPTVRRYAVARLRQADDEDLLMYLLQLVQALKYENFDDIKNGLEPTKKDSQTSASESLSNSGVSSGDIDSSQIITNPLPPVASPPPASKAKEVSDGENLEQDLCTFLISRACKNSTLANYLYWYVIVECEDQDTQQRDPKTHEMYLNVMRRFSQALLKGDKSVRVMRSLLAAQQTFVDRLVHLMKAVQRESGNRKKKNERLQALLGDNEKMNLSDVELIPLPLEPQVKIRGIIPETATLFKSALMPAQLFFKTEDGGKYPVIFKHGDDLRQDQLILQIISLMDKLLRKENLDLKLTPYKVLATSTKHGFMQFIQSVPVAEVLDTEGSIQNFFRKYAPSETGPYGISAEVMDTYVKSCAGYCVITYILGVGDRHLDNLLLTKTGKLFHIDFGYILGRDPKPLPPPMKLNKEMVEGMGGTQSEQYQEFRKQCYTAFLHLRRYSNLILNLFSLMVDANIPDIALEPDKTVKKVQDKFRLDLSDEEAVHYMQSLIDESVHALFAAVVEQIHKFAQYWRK
UniProt Q3UP24: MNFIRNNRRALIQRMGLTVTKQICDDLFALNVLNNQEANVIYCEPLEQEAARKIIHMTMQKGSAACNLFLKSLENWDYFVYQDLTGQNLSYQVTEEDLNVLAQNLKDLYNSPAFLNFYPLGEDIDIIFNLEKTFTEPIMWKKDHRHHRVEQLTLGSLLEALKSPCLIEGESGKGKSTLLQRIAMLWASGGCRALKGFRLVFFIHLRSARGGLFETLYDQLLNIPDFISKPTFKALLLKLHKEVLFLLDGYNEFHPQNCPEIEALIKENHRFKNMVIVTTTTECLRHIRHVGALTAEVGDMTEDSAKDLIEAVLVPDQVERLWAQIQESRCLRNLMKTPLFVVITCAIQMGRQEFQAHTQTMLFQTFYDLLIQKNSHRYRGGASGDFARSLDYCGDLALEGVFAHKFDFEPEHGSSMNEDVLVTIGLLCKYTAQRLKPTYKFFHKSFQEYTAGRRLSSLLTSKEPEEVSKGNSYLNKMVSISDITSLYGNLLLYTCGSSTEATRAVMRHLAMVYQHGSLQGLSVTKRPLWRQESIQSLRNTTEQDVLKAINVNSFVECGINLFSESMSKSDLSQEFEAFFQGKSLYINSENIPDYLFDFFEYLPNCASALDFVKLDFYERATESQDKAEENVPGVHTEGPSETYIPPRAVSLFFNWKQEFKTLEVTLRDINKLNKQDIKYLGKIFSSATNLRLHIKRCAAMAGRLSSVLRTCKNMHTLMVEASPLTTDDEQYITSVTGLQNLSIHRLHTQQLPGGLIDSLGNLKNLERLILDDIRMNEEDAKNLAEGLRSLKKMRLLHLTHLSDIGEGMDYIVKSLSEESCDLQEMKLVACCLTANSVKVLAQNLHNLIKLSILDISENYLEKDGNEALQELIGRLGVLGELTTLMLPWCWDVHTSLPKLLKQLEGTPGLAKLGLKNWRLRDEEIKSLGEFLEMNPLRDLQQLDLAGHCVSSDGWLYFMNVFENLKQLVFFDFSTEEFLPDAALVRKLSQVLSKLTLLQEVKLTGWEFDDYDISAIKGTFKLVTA

Test [2] has as its target T1, pro-caspase-1 (mouse (endogenous in BMDM and colon)). Briefly: co-IP; BMDM from iUVRAG^FS and control mice (also Atg5-deficient BMDM), PBS or LPS (100 ng/ml, 6 h) followed by 1 h of ATP; ASC and NLRP3 co-precipitated with pro-caspase-1; western blot.
Test [3] addresses Beclin1 (mouse (endogenous in liver and BMDM)) (UniProt O88597). Briefly: co-IP; livers of LPS-treated iUVRAG^FS mice (Supplementary Fig. 2b, not shown); told only as 'similar results'.
For test [4] the target is unchanged. Briefly: co-IP; BMDMs from iUVRAG^FS mice, PBS or LPS (100 ng/ml) for 4 h, with or without Dox; IP with anti-Beclin1; lysis in 20 mM Tris pH 7.5, 150 mM NaCl, 1 mM EDTA, 2% Triton X-100; western blot. (Immunoblotting shows a protein as a band on a membrane.)
The target in test [5] is T2, UVRAG (wild-type, endogenous mouse) (mouse (endogenous in liver and BMDM)) (UniProt Q8K245).
T2 sequence: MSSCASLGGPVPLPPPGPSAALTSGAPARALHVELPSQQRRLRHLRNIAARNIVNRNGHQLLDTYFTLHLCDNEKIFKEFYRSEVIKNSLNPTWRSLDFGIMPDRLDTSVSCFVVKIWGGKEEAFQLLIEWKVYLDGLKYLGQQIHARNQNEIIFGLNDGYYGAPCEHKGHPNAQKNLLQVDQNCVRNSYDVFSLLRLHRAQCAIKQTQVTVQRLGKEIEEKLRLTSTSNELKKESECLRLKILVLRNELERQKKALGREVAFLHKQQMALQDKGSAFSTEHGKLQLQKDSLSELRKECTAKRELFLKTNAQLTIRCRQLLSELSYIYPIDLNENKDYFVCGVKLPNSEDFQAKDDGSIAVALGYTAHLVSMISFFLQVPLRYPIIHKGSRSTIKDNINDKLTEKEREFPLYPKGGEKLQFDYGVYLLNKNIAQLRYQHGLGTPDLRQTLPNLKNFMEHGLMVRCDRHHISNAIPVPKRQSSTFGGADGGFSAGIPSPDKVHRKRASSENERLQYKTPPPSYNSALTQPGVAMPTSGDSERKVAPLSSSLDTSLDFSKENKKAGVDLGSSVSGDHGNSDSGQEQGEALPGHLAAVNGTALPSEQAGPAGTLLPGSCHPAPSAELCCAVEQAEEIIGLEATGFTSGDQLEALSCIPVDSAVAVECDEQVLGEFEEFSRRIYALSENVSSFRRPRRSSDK
Briefly: co-IP; liver of 48 h-starved control and Dox-treated/untreated iUVRAG^FS mice; IP with anti-UVRAG (C-term), IgG as negative control; lysis in 25 mM HEPES, 150 mM NaCl, 1 mM EDTA, 1% Triton X-100; western blot.

Results are given in words; binding and its absence hold for the method and conditions named. In cells and extracts the contact can be indirect. Some results given as binding are weak or reduced against the parent protein; the word gives no strength.

For the molecule NLRP3 (from UniProt Q8R4B8 1-1033), the binding entry in test [1] and in test [2] was “binds” throughout.
Regarding MyD88 (from UniProt P22366 1-296), the binding entry in test [3] and in test [4] was “binds” in each case.
Take “Vps34 (from UniProt Q6PF93 1-887) (enzyme)”: the binding result in test [3], in test [4] and in test [5] was “binds” in each case.
With Beclin1 (from UniProt O88597 1-448), the binding result in test [5] is on record as “binds”.
Consider NLRC4 (from UniProt Q3UP24 1-1024), for which the binding result in test [1] is “binds”.

B1: AIM2 (protein, UniProt Q91VJ1 1-354)
chain: MESEYREMLLLTGLDHITEEELKRFKYFALTEFQIARSTLDVADRTELADHLIQSAGAASAVTKAINIFQKLNYMHIANALEEKKKEAERKLMTNTKKRGTQKVENRSQAENCSAASATRSDNDFKEQAATEVCPQAKPQKKQMVAEQEAIREDLQKDPLVVTVLKAINPFECETQEGRQEIFHATVATETDFFFVKVLNAQFKDKFIPKRTIKISNYLWHSNFMEVTSSSVVVDVESNHEVPNNVVKRARETPRISKLKIQPCGTIVNGLFKVQKITEEKDRVLYGIHDKTGTMEVLVLGNPSKTKCEEGDKIRLTFFEVSKNGVKIQLKSGPCSFFKVIKAAKPKTDMKSVE
For B1, in test [1], the binding entry was “binds”.

B2: TRAF6 (enzyme, UniProt P70196 1-530)
chain: MSLLNCENSCGSSQSSSDCCAAMAASCSAAVKDDSVSGSASTGNLSSSFMEEIQGYDVEFDPPLESKYECPICLMALREAVQTPCGHRFCKACIIKSIRDAGHKCPVDNEILLENQLFPDNFAKREILSLTVKCPNKGCLQKMELRHLEDHQVHCEFALVNCPQCQRPFQKCQVNTHIIEDCPRRQVSCVNCAVSMAYEEKEIHDQSCPLANIICEYCGTILIREQMPNHYDLDCPTAPIPCTFSVFGCHEKMQRNHLARHLQENTQLHMRLLAQAVHNVNLALRPCDAASPSRGCRPEDPNYEETIKQLESRLVRQDHQIRELTAKMETQSMYVGELKRTIRTLEDKVAEMEAQQCNGIYIWKIGNFGMHLKSQEEERPVVIHSPGFYTGRPGYKLCMRLHLQLPTAQRCANYISLFVHTMQGEYDSHLPWPFQGTIRLTILDQSEALIRQNHEEVMDAKPELLAFQRPTIPRNPKGFGYVTFMHLEALRQGTFIKDDTLLVRCEVSTRFDMGGLRKEGFQPRSTDAGV
In the case of B2, the binding entry in test [3] and in test [4] was “binds” in each case.

B3: TRIF (protein, UniProt Q80UF7 1-732)
chain: MDNPGPSLRGAFGILGALERDRLTHLKHKLGSLCSGSQESKLLHAMVLLALGQDTEARVSLESLKMNTVAQLVAHQWADMETTEGPEEPPDLSWTVARLYHLLAEENLCPASTRDMAYQVALRDFASQGDHQLGQLQNEAWDRCSSDIKGDPSGFQPLHSHQGSLQPPSASPAVTRSQPRPIDTPDWSWGHTLHSTNSTASLASHLEISQSPTLAFLSSHHGTHGPSKLCNTPLDTQEPQLVPEGCQEPEEISWPPSVETSVSLGLPHEISVPEVSPEEASPILPDALAAPDTSVHCPIECTELSTNSRSPLTSTTESVGKQWPITSQRSPQVPVGDDSLQNTTSSSPPAQPPSLQASPKLPPSPLSSASSPSSYPAPPTSTSPVLDHSETSDQKFYNFVVIHARADEQVALRIREKLETLGVPDGATFCEEFQVPGRGELHCLQDAIDHSGFTILLLTASFDCSLSLHQINHALMNSLTQSGRQDCVIPLLPLECSQAQLSPDTTRLLHSIVWLDEHSPIFARKVANTFKTQKLQAQRVRWKKAQEARTLKEQSIQLEAERQNVAAISAAYTAYVHSYRAWQAEMNKLGVAFGKNLSLGTPTPSWPGCPQPIPSHPQGGTPVFPYSPQPPSFPQPPCFPQPPSFPQPPSFPLPPVSSPQSQSFPSASSPAPQTPGPQPLIIHHAQMVQLGVNNHMWGHTGAQSSDDKTECSENPCMGPLTDQGEPLLETPE
With B3, the binding entry in test [3] and in test [4] was “binds” each time.

B4: UVRAG (wild-type, endogenous mouse) (protein, UniProt Q8K245 1-698)
chain: MSSCASLGGPVPLPPPGPSAALTSGAPARALHVELPSQQRRLRHLRNIAARNIVNRNGHQLLDTYFTLHLCDNEKIFKEFYRSEVIKNSLNPTWRSLDFGIMPDRLDTSVSCFVVKIWGGKEEAFQLLIEWKVYLDGLKYLGQQIHARNQNEIIFGLNDGYYGAPCEHKGHPNAQKNLLQVDQNCVRNSYDVFSLLRLHRAQCAIKQTQVTVQRLGKEIEEKLRLTSTSNELKKESECLRLKILVLRNELERQKKALGREVAFLHKQQMALQDKGSAFSTEHGKLQLQKDSLSELRKECTAKRELFLKTNAQLTIRCRQLLSELSYIYPIDLNENKDYFVCGVKLPNSEDFQAKDDGSIAVALGYTAHLVSMISFFLQVPLRYPIIHKGSRSTIKDNINDKLTEKEREFPLYPKGGEKLQFDYGVYLLNKNIAQLRYQHGLGTPDLRQTLPNLKNFMEHGLMVRCDRHHISNAIPVPKRQSSTFGGADGGFSAGIPSPDKVHRKRASSENERLQYKTPPPSYNSALTQPGVAMPTSGDSERKVAPLSSSLDTSLDFSKENKKAGVDLGSSVSGDHGNSDSGQEQGEALPGHLAAVNGTALPSEQAGPAGTLLPGSCHPAPSAELCCAVEQAEEIIGLEATGFTSGDQLEALSCIPVDSAVAVECDEQVLGEFEEFSRRIYALSENVSSFRRPRRSSDK
For the molecule B4, the binding entry in test [3] and in test [4] was “binds” in each case.

B5: NLRP6 (protein, UniProt Q91WS2 1-869)
chain: MDAAGASCSSVDAVARELLMATLEELSQEQLKRFRHKLRDAPLDGRSIPWGRLERSDAVDLVDKLIEFYEPVPAVEMTRQVLKRSDIRDVASRLKQQQLQKLGPTSVLLSVSAFKKKYREHVLRQHAKVKERNARSVKINKRFTKLLIAPGTGAVEDELLGPLGEPEPERARRSDTHTFNRLFRGNDEESSQPLTVVLQGPAGIGKTMAAKKILYDWAAGKLYHSQVDFAFFMPCGELLERPGKRSLADLVLDQCPDRAWPVKRILAQPNRLLFILDGADELPTLPSSEATPCKDPLEATSGLRVLSGLLSQELLPGARLLVTTRHAATGRLQGRLCSPQCAEIRGFSDKDKKKYFFKFFRDERKAERAYRFVKENETLFALCFVPFVCWIVCTVLQQQLELGRDLSRTSKTTTSVYLLFITSMLKSAGTNGPRVQGELRTLCRLAREGILDHHKAQFSEEDLEKLKLRGSQVQTIFLNKKEIPGVLKTEVTYQFIDQSFQEFLAALSYLLEAERTPGTPAGGVQKLLNSDAELRGHLALTTRFLFGLLNTEGLRDIGNHFGCVVPDHVKKDTLRWVQGQSHPKGPPVGAKKTAELEDIEDAEEEEEEEEDLNFGLELLYCLYETQEEDFVRQALSSLPEIVLERVRLTRMDLEVLNYCVQCCPDGQALRLVSCGLVAAKEKKKKKKSLVKRLKGSQSTKKQPPVSLLRPLCETMTTPKCHLSVLILSHCRLPDAVCRDLSEALKVAPALRELGLLQSRLTNTGLRLLCEGLAWPKCQVKTLRMQLPDLQEVINYLVIVLQQSPVLTTLDLSGCQLPGVIVEPLCAALKHPKCSLKTLSLTSVELSENSLRDLQAVKTSKPDLSIIYSK
Take B5: the binding result in test [1] is “binds”.

The values are drawn from article PMC6908726.
